Measurements reported in PubChem BioAssay AID1259308 (NCATS, 2017).
Purpose: 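Candidate targets for better recombinant protein yield in mammalian cells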 (primary screen). System: human HEK293 embryonic kidney cells stably expressing firefly luciferase (HEK-CMV-Luc2-Hygro). Knock-down reagent: single siRNA against human genes, 0.8 pmol siRNA per well. Duration: 72 h. Detection: 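Reporter luminescence and viable-cell signal on separate replicate plates, given as percent of non-targeting control and median/MAD z-scores, plus per-cell luciferase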. Direction: total luciferase, z-score and total luciferase, % of control: higher = more reporter protein produced; luciferase per cell, z-score: higher = more reporter output per viable cell. Rule for the call: 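Active when the median/MAD z-score for overall luciferase is greater than 3; a gene was taken forward for validation with new siRNAs if at least two of its three siRNAs passed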. Calls: active = raised luciferase; inactive = no rise.
This is an unselected part of about 59,000 reagents tested. Of all reagents, about 1,510 (2.6%) are marked active. 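Calls use total luciferase alone and ignore viability, so some active siRNAs may act by altering cell number.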 The numbers tell different reagents against one gene apart. Further read-outs or replicates are left out here. Reagent sequences are not shown.

gene	reagent	total luciferase, z-score	total luciferase, % of control	luciferase per cell, z-score	call
CALHM6	1	0.729	96.4	0.664	inactive
CALHM6	2	0.463	91.1	-0.259	inactive
CALHM6	3	0.434	90.5	0.279	inactive
ACTR1A	1	0.706	95.9	0.277	inactive
ACTR1A	2	-0.352	74.9	-0.729	inactive
ACTR1A	3	0.0182	82.2	-0.516	inactive
TCN1	1	0.434	90.5	0.313	inactive
TCN1	2	0.0978	83.8	0.198	inactive
TCN1	3	0.206	86	-0.388	inactive
RAB42	1	-0.271	76.5	0.523	inactive
RAB42	2	-0.217	77.6	0.426	inactive
RAB42	3	-0.389	74.2	0.648	inactive
TYMS	1	-0.0559	80.8	0.276	inactive
TYMS	2	-0.0184	81.5	-0.0148	inactive
TYMS	3	-0.802	65.9	-0.428	inactive
PRRG3	1	1.14	105	0.61	inactive
PRRG3	2	0.0645	83.2	0.311	inactive
PRRG3	3	0.295	87.8	-0.00507	inactive
SMIM7	1	-0.745	67.1	-0.699	inactive
SMIM7	2	0.0943	83.8	-0.427	inactive
SMIM7	3	2.52	132	1.93	inactive
EFNA3	1	-0.604	69.9	-0.231	inactive
EFNA3	2	-0.193	78	0.0679	inactive
EFNA3	3	0.973	101	0.337	inactive
FAM181A	1	0.457	91	0.311	inactive
FAM181A	2	0.173	85.3	-0.434	inactive
FAM181A	3	-0.179	78.3	0.252	inactive
CASP4	1	2.68	135	2.49	inactive
CASP4	2	-0.0406	81.1	-0.221	inactive
CASP4	3	-1.17	58.5	-1.14	inactive
MMP1	1	-0.576	70.4	-0.558	inactive
MMP1	2	3.4	149	3.37	active
MMP1	3	0.343	88.7	0.107	inactive
FAM201A	1	-0.165	78.6	0.508	inactive
FAM201A	2	0.112	84.1	0.446	inactive
FAM201A	3	2.67	135	2.37	inactive
SCYL1	1	0.255	87	0.0513	inactive
SCYL1	2	-1.67	48.6	-1.91	inactive
SCYL1	3	0.359	89	0.596	inactive
CAB39L	1	1.38	109	0.857	inactive
CAB39L	2	-1.54	51.2	-1.95	inactive
CAB39L	3	1.6	114	2.56	inactive
RNF122	1	0.495	91.7	0.319	inactive
RNF122	2	-1.71	47.8	-1.9	inactive
RNF122	3	2.95	141	2.08	inactive
CFAP100	1	2.75	137	1.12	inactive
CFAP100	2	2.41	130	2.25	inactive
CFAP100	3	-0.689	68.2	-0.67	inactive
ACAN	1	0.795	97.7	0.0249	inactive
ACAN	2	-0.205	77.8	-0.126	inactive
ACAN	3	1.8	118	0.542	inactive
NPC2	1	-0.166	78.6	-1.07	inactive
NPC2	2	-0.112	79.7	-0.301	inactive
NPC2	3	-0.644	69.1	0.158	inactive
NR5A2	1	-0.208	77.8	-0.72	inactive
NR5A2	2	-0.00249	81.8	0.0053	inactive
NR5A2	3	-0.535	71.2	-0.108	inactive
